# Test results reported in publication PMC8384837.
# Positions count from the first letter of the chain named. The list shows a part of the results.
# Columns and labels:
# Conditions in all cases: yeast three-hybrid, YBZ-1, SC-Leu-His + 0.5 mM 3-AT, 4 days
# [1] = target: T1, PUM1 PUF domain R5-CGR R1008G + Q1011R (Homo sapiens) (UniProt Q14671)
# T1 sequence: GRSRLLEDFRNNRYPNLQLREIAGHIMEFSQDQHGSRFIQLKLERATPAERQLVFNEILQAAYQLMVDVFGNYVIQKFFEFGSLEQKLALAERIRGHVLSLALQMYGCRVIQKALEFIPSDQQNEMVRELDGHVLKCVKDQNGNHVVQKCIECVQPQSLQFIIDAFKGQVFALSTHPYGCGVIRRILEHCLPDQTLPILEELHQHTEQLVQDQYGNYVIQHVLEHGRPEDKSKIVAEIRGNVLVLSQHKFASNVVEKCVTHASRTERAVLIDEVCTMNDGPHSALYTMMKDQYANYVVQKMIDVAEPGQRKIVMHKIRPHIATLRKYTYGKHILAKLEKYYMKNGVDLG
# [2] = target: T2, PUM1 PUF domain R5-FRV C1007F + Q1011V (Homo sapiens) (UniProt Q14671)
# T2 sequence: T1 sequence with C180F, G181R, R184V
# [3] = target: T3, PUM1 PUF domain R5-GKS C1007G + R1008K + Q1011S (Homo sapiens) (UniProt Q14671)
# T3 sequence: T1 sequence with C180G, G181K, R184S
# [4] = target: T4, PUM1 PUF domain R5-KAS C1007K + R1008A + Q1011S (Homo sapiens) (UniProt Q14671)
# T4 sequence: T1 sequence with C180K, G181A, R184S
# [5] = target: T5, PUM1 PUF domain R5-KGS C1007K + R1008G + Q1011S (Homo sapiens) (UniProt Q14671)
# T5 sequence: T1 sequence with C180K, R184S
# [6] = target: T6, PUM1 PUF domain R5-KGW C1007K + R1008G + Q1011W (Homo sapiens) (UniProt Q14671)
# T6 sequence: T1 sequence with C180K, R184W
# [7] = target: T7, PUM1 PUF domain R5-KMV C1007K + R1008M + Q1011V (Homo sapiens) (UniProt Q14671)
# T7 sequence: T1 sequence with C180K, G181M, R184V
# [8] = target: T8, PUM1 PUF domain R5-KSK C1007K + R1008S + Q1011K (Homo sapiens) (UniProt Q14671)
# T8 sequence: T1 sequence with C180K, G181S, R184K
# [9] = target: T9, PUM1 PUF domain R5-QAR C1007Q + R1008A + Q1011R (Homo sapiens) (UniProt Q14671)
# T9 sequence: T1 sequence with C180Q, G181A
# [10] = target: T10, PUM1 PUF domain R5-RAV C1007R + R1008A + Q1011V (Homo sapiens) (UniProt Q14671)
# T10 sequence: T1 sequence with C180R, G181A, R184V
# [11] = target: T11, PUM1 PUF domain R5-RCL C1007R + R1008C + Q1011L (Homo sapiens) (UniProt Q14671)
# T11 sequence: T1 sequence with C180R, G181C, R184L
# [12] = target: T12, PUM1 PUF domain R5-RCS C1007R + R1008C + Q1011S (Homo sapiens) (UniProt Q14671)
# T12 sequence: T1 sequence with C180R, G181C, R184S
# [13] = target: T13, PUM1 PUF domain R5-RGG C1007R + R1008G + Q1011G (Homo sapiens) (UniProt Q14671)
# T13 sequence: T1 sequence with C180R, R184G
# [14] = target: T14, PUM1 PUF domain R5-RGM C1007R + R1008G + Q1011M (Homo sapiens) (UniProt Q14671)
# T14 sequence: T1 sequence with C180R, R184M
# [15] = target: T15, PUM1 PUF domain R5-RKI C1007R + R1008K + Q1011I (Homo sapiens) (UniProt Q14671)
# T15 sequence: T1 sequence with C180R, G181K, R184I
# [16] = target: T16, PUM1 PUF domain R5-RMK C1007R + R1008M + Q1011K (Homo sapiens) (UniProt Q14671)
# T16 sequence: T1 sequence with C180R, G181M, R184K
# [17] = target: T17, PUM1 PUF domain R5-RMR C1007R + R1008M + Q1011R (Homo sapiens) (UniProt Q14671)
# T17 sequence: T1 sequence with C180R, G181M
# [18] = target: T18, PUM1 PUF domain R5-RNG C1007R + R1008N + Q1011G (Homo sapiens) (UniProt Q14671)
# T18 sequence: T1 sequence with C180R, G181N, R184G
# [19] = target: T19, PUM1 PUF domain R5-RQV C1007R + R1008Q + Q1011V (Homo sapiens) (UniProt Q14671)
# T19 sequence: T1 sequence with C180R, G181Q, R184V
# [20] = target: T20, PUM1 PUF domain R5-SKR C1007S + R1008K + Q1011R (Homo sapiens) (UniProt Q14671)
# T20 sequence: T1 sequence with C180S, G181K
sequence,measurement,setting,value
GGCUAGAACUAGUGGAUCCCCCGGCGCCCGGCGGCUCGAGCCCGGGUAAGUGUAAAUAGUCUGCAUGCCGCCGGGCGCCAUGCCUGCAGGUCGACUCUAGAAAACAUG,binding signal (log2 enrichment (interaction score)),[1],-0.26
same,binding signal (log2 enrichment (interaction score)),[2],-0.2
same,binding signal (log2 enrichment (interaction score)),[3],-0.26
same,binding signal (log2 enrichment (interaction score)),[4],-0.3
same,binding signal (log2 enrichment (interaction score)),[5],-0.5
same,binding signal (log2 enrichment (interaction score)),[6],-1
same,binding signal (log2 enrichment (interaction score)),[7],-1.23
same,binding signal (log2 enrichment (interaction score)),[8],-0.46
same,binding signal (log2 enrichment (interaction score)),[9],-0.41
same,binding signal (log2 enrichment (interaction score)),[10],-3.31
same,binding signal (log2 enrichment (interaction score)),[11],-0.43
same,binding signal (log2 enrichment (interaction score)),[12],-0.51
same,binding signal (log2 enrichment (interaction score)),[13],-0.3
same,binding signal (log2 enrichment (interaction score)),[14],-0.41
same,binding signal (log2 enrichment (interaction score)),[15],-0.07
same,binding signal (log2 enrichment (interaction score)),[16],-0.47
same,binding signal (log2 enrichment (interaction score)),[17],-0.32
same,binding signal (log2 enrichment (interaction score)),[18],-0.41
same,binding signal (log2 enrichment (interaction score)),[19],-1.45
same,binding signal (log2 enrichment (interaction score)),[20],-0.41

# Reformatted: results already given
sequence	measurement	setting	value
GGCUAGAACUAGUGGAUCCCCCGGCGCCCGGCGGCUCGAGCCCGGGUAAGUGUAAAUAGUCUGCAUGCCGCCGGGCGCCAUGCCUGCAGGUCGACUCUAGAAAACAUG	binding signal (log2 enrichment (interaction score))	[12]	-0.51
same	binding signal (log2 enrichment (interaction score))	[13]	-0.3
same	binding signal (log2 enrichment (interaction score))	[14]	-0.41
same	binding signal (log2 enrichment (interaction score))	[15]	-0.07
